Source: publication PMC4323032
No constants are given. Whether binding was seen depends on the method and setting. Binding seen in cells or lysates may run through a third protein. A yes stands for co-enrichment or nearness to the bait. Other partners may have been found.

Sequences of proteins named here, by UniProt entry; tags and fusion partners are left off. Residues count along the entry.
UniProt Q99M73: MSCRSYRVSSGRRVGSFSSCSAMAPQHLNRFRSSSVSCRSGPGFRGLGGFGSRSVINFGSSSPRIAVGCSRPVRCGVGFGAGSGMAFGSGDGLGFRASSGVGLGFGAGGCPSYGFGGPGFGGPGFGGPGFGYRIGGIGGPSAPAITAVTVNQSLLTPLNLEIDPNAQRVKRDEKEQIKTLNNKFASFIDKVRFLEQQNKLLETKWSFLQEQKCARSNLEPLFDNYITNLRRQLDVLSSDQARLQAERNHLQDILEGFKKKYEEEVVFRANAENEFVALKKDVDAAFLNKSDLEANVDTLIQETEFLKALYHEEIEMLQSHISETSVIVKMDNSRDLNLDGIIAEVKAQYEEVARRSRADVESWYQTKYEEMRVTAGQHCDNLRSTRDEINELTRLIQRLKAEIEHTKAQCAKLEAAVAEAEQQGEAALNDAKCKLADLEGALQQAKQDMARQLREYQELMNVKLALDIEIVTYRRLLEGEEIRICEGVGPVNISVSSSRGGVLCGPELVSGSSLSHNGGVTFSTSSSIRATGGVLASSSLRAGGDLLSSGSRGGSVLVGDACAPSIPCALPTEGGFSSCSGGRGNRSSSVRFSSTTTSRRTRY
UniProt Q3UV17: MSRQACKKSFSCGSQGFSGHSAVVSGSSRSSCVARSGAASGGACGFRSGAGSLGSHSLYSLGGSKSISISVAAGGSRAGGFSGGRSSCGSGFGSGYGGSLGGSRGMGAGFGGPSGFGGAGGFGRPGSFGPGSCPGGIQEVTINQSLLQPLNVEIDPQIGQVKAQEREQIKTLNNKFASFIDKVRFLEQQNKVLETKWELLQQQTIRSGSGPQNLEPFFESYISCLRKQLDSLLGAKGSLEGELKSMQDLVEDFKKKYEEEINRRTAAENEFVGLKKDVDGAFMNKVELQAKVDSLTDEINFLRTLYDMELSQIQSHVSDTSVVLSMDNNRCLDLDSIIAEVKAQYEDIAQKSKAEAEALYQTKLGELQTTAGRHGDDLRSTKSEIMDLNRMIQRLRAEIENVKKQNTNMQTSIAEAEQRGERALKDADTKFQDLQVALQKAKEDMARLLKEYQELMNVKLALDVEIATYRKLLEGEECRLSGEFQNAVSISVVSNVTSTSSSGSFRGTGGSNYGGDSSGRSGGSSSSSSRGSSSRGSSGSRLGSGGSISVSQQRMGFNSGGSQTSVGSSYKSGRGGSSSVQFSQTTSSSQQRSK
UniProt P07724, residues 25-608: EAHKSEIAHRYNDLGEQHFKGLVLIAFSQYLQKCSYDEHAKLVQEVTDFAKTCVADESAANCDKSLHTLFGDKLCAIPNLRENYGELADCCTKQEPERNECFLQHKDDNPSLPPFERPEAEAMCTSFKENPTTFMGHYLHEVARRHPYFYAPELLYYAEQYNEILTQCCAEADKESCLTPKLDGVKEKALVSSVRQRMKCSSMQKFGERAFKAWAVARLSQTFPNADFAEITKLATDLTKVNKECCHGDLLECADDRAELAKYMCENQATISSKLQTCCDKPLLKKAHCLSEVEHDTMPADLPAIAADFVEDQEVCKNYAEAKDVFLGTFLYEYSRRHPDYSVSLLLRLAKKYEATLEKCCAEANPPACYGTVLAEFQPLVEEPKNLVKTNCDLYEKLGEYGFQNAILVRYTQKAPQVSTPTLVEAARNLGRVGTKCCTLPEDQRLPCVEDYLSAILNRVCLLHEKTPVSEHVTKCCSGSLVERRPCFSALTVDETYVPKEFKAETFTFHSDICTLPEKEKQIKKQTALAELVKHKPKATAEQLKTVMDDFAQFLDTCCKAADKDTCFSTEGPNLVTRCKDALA
UniProt Q61781: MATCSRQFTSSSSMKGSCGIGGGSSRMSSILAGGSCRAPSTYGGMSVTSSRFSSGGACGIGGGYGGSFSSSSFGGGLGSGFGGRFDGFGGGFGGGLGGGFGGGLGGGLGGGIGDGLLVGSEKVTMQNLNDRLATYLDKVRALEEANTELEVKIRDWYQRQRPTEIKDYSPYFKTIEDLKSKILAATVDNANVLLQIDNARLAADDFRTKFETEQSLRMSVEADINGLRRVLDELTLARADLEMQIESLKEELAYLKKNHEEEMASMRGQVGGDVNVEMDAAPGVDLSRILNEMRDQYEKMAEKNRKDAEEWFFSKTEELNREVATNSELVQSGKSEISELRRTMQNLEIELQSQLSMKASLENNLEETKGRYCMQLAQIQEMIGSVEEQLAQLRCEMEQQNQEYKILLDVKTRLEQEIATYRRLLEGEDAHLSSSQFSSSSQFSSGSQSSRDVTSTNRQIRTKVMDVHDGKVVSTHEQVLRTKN
UniProt Q9QWL7: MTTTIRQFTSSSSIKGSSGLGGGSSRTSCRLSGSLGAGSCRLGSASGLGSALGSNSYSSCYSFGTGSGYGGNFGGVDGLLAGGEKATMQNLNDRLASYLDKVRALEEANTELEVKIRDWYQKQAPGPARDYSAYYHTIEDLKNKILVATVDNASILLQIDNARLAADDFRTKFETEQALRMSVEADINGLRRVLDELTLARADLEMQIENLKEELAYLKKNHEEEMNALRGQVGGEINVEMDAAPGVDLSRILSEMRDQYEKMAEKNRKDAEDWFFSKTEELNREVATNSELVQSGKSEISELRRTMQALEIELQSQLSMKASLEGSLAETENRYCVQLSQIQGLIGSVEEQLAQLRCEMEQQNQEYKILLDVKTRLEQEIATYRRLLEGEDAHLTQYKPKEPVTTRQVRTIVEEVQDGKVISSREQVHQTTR
UniProt Q6IFX2: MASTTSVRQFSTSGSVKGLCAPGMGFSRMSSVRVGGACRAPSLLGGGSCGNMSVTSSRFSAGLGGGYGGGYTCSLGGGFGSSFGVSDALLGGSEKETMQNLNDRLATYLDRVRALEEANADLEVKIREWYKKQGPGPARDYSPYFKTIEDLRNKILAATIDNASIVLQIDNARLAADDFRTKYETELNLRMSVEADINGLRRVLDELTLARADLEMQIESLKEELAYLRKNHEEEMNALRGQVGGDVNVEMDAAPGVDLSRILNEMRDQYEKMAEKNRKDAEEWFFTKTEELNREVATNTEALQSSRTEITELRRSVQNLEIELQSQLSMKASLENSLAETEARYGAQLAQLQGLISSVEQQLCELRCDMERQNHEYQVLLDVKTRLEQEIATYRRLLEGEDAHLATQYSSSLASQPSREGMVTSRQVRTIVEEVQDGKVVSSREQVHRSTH
UniProt Q6IFZ6: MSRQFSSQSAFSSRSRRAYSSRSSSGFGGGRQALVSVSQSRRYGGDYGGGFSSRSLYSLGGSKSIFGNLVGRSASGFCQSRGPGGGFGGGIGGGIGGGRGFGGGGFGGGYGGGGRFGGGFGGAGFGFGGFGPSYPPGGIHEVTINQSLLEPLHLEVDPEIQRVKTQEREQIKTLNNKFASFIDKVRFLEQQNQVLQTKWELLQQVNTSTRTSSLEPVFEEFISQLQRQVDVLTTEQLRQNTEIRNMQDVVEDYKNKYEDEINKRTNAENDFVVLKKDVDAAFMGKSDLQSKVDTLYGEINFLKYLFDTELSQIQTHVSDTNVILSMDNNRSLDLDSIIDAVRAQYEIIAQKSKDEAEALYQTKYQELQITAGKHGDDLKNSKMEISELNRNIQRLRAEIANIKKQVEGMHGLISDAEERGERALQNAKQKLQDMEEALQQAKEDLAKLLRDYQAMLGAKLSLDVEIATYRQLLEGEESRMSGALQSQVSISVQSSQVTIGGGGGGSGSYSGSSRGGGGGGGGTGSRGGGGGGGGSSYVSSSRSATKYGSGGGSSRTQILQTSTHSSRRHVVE
UniProt Q6IME9: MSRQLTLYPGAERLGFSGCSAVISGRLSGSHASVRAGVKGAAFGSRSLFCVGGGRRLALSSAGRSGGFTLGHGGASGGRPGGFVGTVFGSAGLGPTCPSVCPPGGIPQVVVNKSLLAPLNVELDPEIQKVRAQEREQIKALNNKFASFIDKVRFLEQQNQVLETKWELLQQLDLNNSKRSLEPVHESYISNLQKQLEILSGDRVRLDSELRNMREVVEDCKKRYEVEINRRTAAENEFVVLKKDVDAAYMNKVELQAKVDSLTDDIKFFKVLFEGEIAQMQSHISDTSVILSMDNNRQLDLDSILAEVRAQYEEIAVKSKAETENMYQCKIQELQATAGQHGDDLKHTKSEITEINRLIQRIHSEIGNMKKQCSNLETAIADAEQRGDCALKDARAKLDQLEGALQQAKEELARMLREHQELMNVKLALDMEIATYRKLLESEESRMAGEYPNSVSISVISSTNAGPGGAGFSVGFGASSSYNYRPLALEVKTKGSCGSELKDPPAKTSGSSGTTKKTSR
UniProt Q6IFZ9: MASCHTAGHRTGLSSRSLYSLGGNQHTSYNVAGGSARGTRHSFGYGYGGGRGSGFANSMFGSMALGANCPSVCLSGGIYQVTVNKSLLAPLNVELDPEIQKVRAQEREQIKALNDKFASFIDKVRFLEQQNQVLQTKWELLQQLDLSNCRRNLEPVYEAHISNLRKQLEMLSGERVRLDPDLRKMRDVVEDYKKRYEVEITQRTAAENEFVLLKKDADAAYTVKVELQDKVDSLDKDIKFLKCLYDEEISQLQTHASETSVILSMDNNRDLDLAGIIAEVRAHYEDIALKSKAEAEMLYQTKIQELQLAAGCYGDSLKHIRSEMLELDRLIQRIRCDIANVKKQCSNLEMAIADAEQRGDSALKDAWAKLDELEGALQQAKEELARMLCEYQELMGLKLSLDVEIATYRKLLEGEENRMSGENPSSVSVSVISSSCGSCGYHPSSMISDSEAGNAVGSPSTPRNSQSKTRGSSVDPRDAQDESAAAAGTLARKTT

What follows are substances tested against T1, Peroxiredoxin V (mouse (endogenous in kidney)) (UniProt P99029) (assay: affinity purification with mass spectrometry; 500 μg total protein of normoxic or hypoxic (8% O2, 4 h) mouse kidney, anti-Prdx V antibody at 4°C overnight, protein G agarose; gel-assisted digestion, nano-UPLC-MS^E; three independent experiments).
T1 sequence: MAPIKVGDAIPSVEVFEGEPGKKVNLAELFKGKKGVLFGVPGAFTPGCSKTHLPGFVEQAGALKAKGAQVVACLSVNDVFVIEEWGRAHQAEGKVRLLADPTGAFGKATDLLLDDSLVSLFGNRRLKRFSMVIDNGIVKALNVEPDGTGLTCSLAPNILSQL

Row | binding | Substance
1 | binds | Keratin Kb40 (mouse (endogenous in kidney))
2 | binds | Keratin type II cuticular Hb4 (from UniProt Q99M73 1-603)
3 | binds | Keratin type II cytoskeletal 2, oral (from UniProt Q3UV17 1-594)
4 | binds | Serum albumin (from UniProt P07724 25-608)

Continued, substance first:

Row | Substance | binding
5 | Keratin type I cytoskeletal 14 (from UniProt Q61781 1-484) | binds
6 | Keratin type I cytoskeletal 17 (from UniProt Q9QWL7 1-433) | binds
7 | Keratin type I cytoskeletal 42 (from UniProt Q6IFX2 1-452) | binds
8 | Keratin type II cytoskeletal 1b (from UniProt Q6IFZ6 1-572) | binds
9 | Keratin type II cytoskeletal 72 (from UniProt Q6IME9 1-520) | binds
10 | Keratin type II cytoskeletal 74 (from UniProt Q6IFZ9 1-495) | binds
